From PubChem BioAssay AID1347075 (National Center for Advancing Translational Sciences (NCATS), 2019)
Out of some 400,000 compounds screened, about 5,500 (1.4%) were called active. The shares of active, inactive and inconclusive entries below differ from those in the screen. Calls follow the shape of the dose curve; as a rule, active = well fitted cell-killing curve with a large enough effect; inconclusive = small, poorly fitted or top-dose-only effect, or effect the other way; inactive = flat fitted curve, though single readings scatter. A potency beside an inconclusive call is a rough fit, not a confirmed value.

Experiment: qHTS assay for MDR1-selective chemotherapeutics: Primary screen using the parental adenocarcinoma cell KB-3-1; also: nearly all actives have a fitted effect of over 60% in size
Conditions: KB-3-1 viability, CellTiter-Glo ATP luminescence, 72 h; series mostly up to 46.1 µM
Procedure, shortened: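 Cytotoxicity in the drug-sensitive parental line KB-3-1 was scored as loss of CellTiter-Glo luminescence following 72 h incubation with compound. Values come from curve fitting of normalized concentration-response data.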
Potency is read from the fitted curve at half-maximal effect.

| SMILES | Potency |
| --- | --- |
| Fc1ccccc1N1CCN(C(c2cccs2)c2nnnn2CCc2ccccc2)CC1 (stereo not drawn) | inactive |
| Cc1ccc(NC(=O)CN2C(=O)NC(C)(c3ccc(Cl)cc3)C2=O)cc1S(=O)(=O)N1CCOCC1 (stereo not drawn) | inconclusive: 16.4 µM [cytotoxic, single point] |
| O=C(Nc1ccc(Cl)cc1)C1Cc2c(-c3ccccc3Oc3ccccc3)ccnc2O1 (stereo not drawn) | inconclusive: 29.1 µM [cytotoxic, single point] |
| CCn1c2ccccc2c2cc(NC(=O)CSc3nnc(-c4cccc(F)c4)o3)ccc21 | active: 7.31 µM |
| O=C(Nc1ccc(S(=O)(=O)NCc2ccco2)cc1)c1ccc2ccccc2n1 | inconclusive: 18.4 µM [cytotoxic, partial curve, poor fit] |
| CN(C(=O)c1cccc(Nc2ccc(-c3ccc4c(c3)OCCO4)nn2)c1)C1CCCCC1 | inconclusive: 29.1 µM [cytotoxic, single point] |
| Cc1cc(C)n2c(Nc3ccc4c(c3)OCCO4)c(C(C)C)nc2n1 | inactive |
| COc1cc(C(=O)N/C(=C\c2cn(S(=O)(=O)N(C)C)c3ccccc23)C(=O)N2CCCC2)cc(OC)c1OC | inconclusive: 20.6 µM [cytotoxic, single point] |
| CCC(C)OC(=O)C[N+](C)(C)CCOC1CC2CCC1(C)C2(C)C (stereo not drawn) | active: 20.6 µM |
| Cc1ccc(NC(=O)COc2ccc(CCO)cc2-n2nc3ccccc3n2)cc1C | inconclusive: 9.2 µM [cytotoxic, partial curve] |
| CC(C)c1ccc(N2C(=O)/C(=C/N(C)C)SC2=S)cc1 | inconclusive: 23.1 µM [cytotoxic, single point] |
| O=C1NC[C@H](c2ccccc2)OC(=O)[C@H](Cc2ccc(F)cc2)C/C=C\C[C@H]1CC(=O)N(CCO)Cc1ccccc1 | inconclusive: 32.6 µM [cytotoxic, single point] |
| Cc1cc(C(=O)CC#N)c(C)n1-c1ccc(OC(F)F)cc1 | inconclusive: 20.6 µM [cytotoxic, single point] |
| Cc1oc(-c2ccccc2Cl)nc1CN1CCCC1c1ccc(F)cc1 (stereo not drawn) | inactive |
| O=C(Nc1ccc(Br)cc1)c1ccc(Br)c(S(=O)(=O)NCc2ccccc2)c1 | inconclusive: 18.4 µM [cytotoxic, single point] |
| O=c1cnn(Cc2ccc(Cl)c(Cl)c2)c2ccccc12 | inconclusive: 29.1 µM [cytotoxic, single point] |
| COc1ccc(NS(=O)(=O)c2ccc(C(=O)N(C)Cc3cccs3)cc2)cc1 | inconclusive: 23.1 µM [cytotoxic, partial curve, poor fit] |
| COc1ccccc1-c1cc(NC=O)c2ncc(-c3cccc(C(=O)N(C)C)c3)n2c1 | inconclusive: 29.1 µM [cytotoxic, single point] |
| COc1ccc(/C=C/C(=O)c2cc(Cl)ccc2O)c(OC)c1 | inconclusive: 29.1 µM [cytotoxic, single point] |
| CN1CCN(C(=O)c2cc3c(c(-c4cccc(Br)c4)n2)[C@@H](CCO)N(S(=O)C(C)(C)C)C3)CC1 (stereo partly drawn) | inconclusive: 25.9 µM [cytotoxic, single point] |
| Cc1ccc(C(c2sc3nc(-c4ccco4)nn3c2O)N2CCCCC2)cc1 (stereo not drawn) | inactive |
| OC1CCCN(c2c3c(nc4cc(-c5cccc(F)c5)nn24)CCCC3)C1 (stereo not drawn) | inactive |
| CCC(Sc1nc2ncccc2[nH]1)C(=O)NC1CCCC1 (stereo not drawn) | inconclusive: 29.1 µM [cytotoxic, single point] |

| SMILES | Potency |
| --- | --- |
| Cc1sc2ncnc(Sc3nnnn3-c3ccc(Cl)cc3)c2c1C | inconclusive: 16.4 µM [cytotoxic, single point] |
| Cc1ccc(C(=O)Nc2ccc3c(c2)N(C)C(=O)c2ccccc2S3)cc1F | active: 8.2 µM |
| Cc1ccc2c(C)c(C(=O)N3CCCCC3CO)oc2c1C (stereo not drawn) | inactive |
| COc1ccc(Cn2c(SCC#N)nc3ccc(N4CCOCC4)cc3c2=O)cc1 | inactive |
| CCOc1ccccc1CN1CCN(CC2=Cc3cc(OC)ccc3OC2)CC1CCO (stereo not drawn) | inconclusive: 20.6 µM [cytotoxic, single point] |
| CC(C)CCN(CCC(C)C)C(CO)(CO)CO | inconclusive: 16.4 µM [cytotoxic, single point] |
| O=C1c2ccccc2C(=O)c2cc(N3CCCCC3)ccc21 | inconclusive: 29.1 µM [cytotoxic, single point] |
| O=C(N/N=C/c1ccc2c(c1)OCO2)c1sc2cc(Cl)ccc2c1Cl | inconclusive: 29.1 µM [cytotoxic, single point] |
| CCCCn1c(N)c(N(CCOC)C(=O)c2ccc(N3C(=O)CCC3=O)cc2)c(=O)[nH]c1=O | inconclusive: 13 µM [rising, partial curve, poor fit] |
| Cc1nonc1C(=O)N/N=C/c1ccc(O)cc1O | inconclusive: 16.4 µM [cytotoxic, single point] |
| O=C(NCCOc1ccccc1F)c1ccccc1SCc1ccc(F)cc1 | inconclusive: 13 µM [rising, partial curve, poor fit] |
| O=C(Nc1cc(Cl)ccc1-n1cncn1)c1cn2ccccc2n1 | inactive |
| CCOc1ccc2c(c1)C(C)=CC(C)(C)N2C(=O)Nc1ccccc1F | inactive |
| COc1ccc(NC(=O)NC(C)C2CC3CCC2C3)cc1 (stereo not drawn) | inactive |
| COc1cccc(N2CC(=O)Nc3c(oc4nc(-c5ccccc5)cc(C)c34)C2=O)c1 | inactive |
| Cc1cccnc1C(NC(=O)C1CCN(CCCOc2ccc(F)cc2)CC1)c1ccccc1 (stereo not drawn) | inactive |
| Cn1ccsc1=NC(=O)c1ccc(Cl)c([N+](=O)[O-])c1 | inactive |
| COc1ccc(CN(C(C)=O)c2cc(C)c([N+](=O)[O-])cc2OC)cc1OC | inactive |
| CCC(=O)[C@@H](C)[C@@H](OC(C)=O)[C@H](C)C[C@@H](C)[C@H]1OC(=O)C[C@@]2(O)CC=C(C)C(O2)C(C)=CCCC[C@H](O[C@H]2C[C@@H](OC(N)=O)[C@H](OC(C)=O)[C@@H](C)O2)C=C[C@H](C)C[C@H]1C | active: 1.3 µM |
| CCn1c(SCc2ccccc2Cl)nc2nc3c(cc2c1=O)CCCC3 | inconclusive: 20.6 µM [cytotoxic, partial curve, poor fit] |
| O=C(c1c(Cl)nc2sccn12)N1CCN(c2cccc(Cl)c2)CC1 | active: 1.64 µM |
| NS(=O)(=O)c1ccc(N=Nc2ccc(O)c3ncccc23)cc1 | inconclusive: 20.6 µM [cytotoxic, partial curve] |
| COc1ccc(S(=O)(=O)NCc2cccn2Cc2cccc(C)c2)cc1OC | inconclusive: 29.1 µM [cytotoxic, single point] |

Two successive records out of the list so far:

| SMILES | Potency |
| --- | --- |
| CCOc1ccc2c(c1)C(C)=CC(C)(C)N2C(=O)Nc1ccccc1F | inactive |
| COc1ccc(NC(=O)NC(C)C2CC3CCC2C3)cc1 (stereo not drawn) | inactive |

Next part:

| SMILES | Potency |
| --- | --- |
| CN(C)c1ccc(/C=C/C(=O)c2ccc(O)cc2)cc1 | inconclusive: 23.1 µM [cytotoxic, single point] |
| COc1ccccc1N1CCN(C(=O)C2c3ccccc3Oc3ccccc32)CC1 | active: 1.84 µM |
| CCc1ccc2[nH]c(=O)c(C3C(C#N)=C(N)Oc4c3ccc3cccnc43)cc2c1 (stereo not drawn) | inconclusive: 29.1 µM [cytotoxic, single point] |
| CC1Cc2ccccc2N1C(=O)CN1CCC(n2nnc3cc(C(F)(F)F)ccc32)CC1 (stereo not drawn) | inconclusive: 16.4 µM [cytotoxic, single point] |
| O=C(c1ccc([N+](=O)[O-])o1)N(Cc1nnc(-c2ccccc2Cl)o1)C1CC1 | inconclusive: 18.4 µM [cytotoxic, single point] |
| Cc1ccc(C(=O)c2cc([N+](=O)[O-])ccc2N2CCOCC2)cc1 | active: 2.06 µM |
| Fc1ccc(C(c2nnnn2C2CCCC2)N(Cc2ccco2)CC2CCCO2)cc1 (stereo not drawn) | inconclusive: 29.1 µM [cytotoxic, single point] |
| Cc1nn(-c2ccccc2)c(C)c1NC(=O)COc1ccc(Cl)cc1Cl | active: 5.17 µM |
| CN(Cc1ccccc1F)c1ncnc2sccc12 | inactive |
| CC(C)CN(CCNC(=O)CN1N=C(c2ccc(Cl)cc2)CCC1=O)CC(C)C | inactive |
| CCOC(=O)C1=C(C)OC(N)=C(C#N)C1c1ccsc1 (stereo not drawn) | inactive |
| COc1ccccc1NS(=O)(=O)c1cccc(NC(=O)c2cncc(Br)c2)c1 | inconclusive: 29.1 µM [cytotoxic, single point] |
| Cc1nc2cc(-c3sccc3-n3cccc3)nn2c(C)c1C | inactive |
| O=C(c1ccco1)N1CCN(c2nc(C3CC3)nc3c2nnn3Cc2ccccc2Cl)CC1 | inconclusive: 29.1 µM [cytotoxic, single point] |
| CCCCCn1c(CN2CCN(c3cc(Cl)ccc3C)CC2)nc2c1c(=O)[nH]c(=O)n2C | inconclusive: 35.5 µM [cytotoxic, single point] |
| O=C(CCNS(=O)(=O)c1cccc2nonc12)NCCc1ccc(Cl)cc1 | inactive |
| COc1ccc(NC(=O)Cn2cnc3c(nc4n3CCCCC4)c2=O)c(OC)c1 | inactive |
| CCOC(=O)C1=C(C)NC(C)=C(C(=O)OC)[C@H]1c1cccc([N+](=O)[O-])c1 | inconclusive: 6.51 µM [rising, partial curve, poor fit] |
| CCCc1nnc(NS(=O)(=O)c2ccc(OC)cc2)s1 | inconclusive: 23.1 µM [rising, single point] |
| O=[N+]([O-])c1cc(S(=O)(=O)Nc2cccc(Cl)c2)ccc1N=Nc1c(O)[nH]c2ccccc12 | inconclusive: 23.1 µM [cytotoxic, partial curve, poor fit] |
| O=S(=O)(Nc1nc2ccccc2nc1Nc1ccc2c(c1)OCO2)c1ccc(F)cc1 | inconclusive: 9.2 µM [cytotoxic, partial curve] |
| O=C(NCc1cc(C(F)(F)F)cc(C(F)(F)F)c1)C1CC(c2c(Cl)cccc2Cl)=NO1 (stereo not drawn) | inconclusive: 29.1 µM [cytotoxic, single point] |
